Results are given in words; binding and its absence hold for the method and conditions named. Binding seen in cells or lysates may run through a third protein. Some binding calls cover weakened binding; strength is not graded here. One block for each substance: values may come before it.
Tests used:
[1] = target: Sig-1R-GFP (in the cells of Supplementary Figure S2) (UniProt O55242); test: co-IP; Supplementary Figure S2: endogenous Sec61β with expressed Sig-1R-GFP; cell line and antibodies not given
[2] = target: eukaryotic initiation factor 4E, endogenous in rat DRG (rat (endogenous in DRG)) (UniProt P63074); test: co-IP; lysate of rat L4-L6 DRGs, sham or SNI (day 14), pooled from 2 animals; protein-A/G agarose beads, 4 °C; band intensity normalized to eIF4E
[3] = target: Sig-1R-GFP (in HEK cells) (UniProt O55242); test: co-IP; HEK cells co-expressing cFOS-Myc/DDK and Sig-1R-GFP; IP lysis buffer (50 mM Tris pH 7.4, 150 mM NaCl, 1% Nonidet P40), protein-A/G agarose beads, 4 °C; precipitating antibody not told
[4] = target: Sigma-1R-EYFP (UniProt O55242); test: co-IP; N2a cells overexpressing HA-tagged Sec61β and Sig-1R-EYFP; immunoprecipitation with GFP antibody

By UniProt entry, the sequences of proteins in these tests, tags left out.
UniProt O55242: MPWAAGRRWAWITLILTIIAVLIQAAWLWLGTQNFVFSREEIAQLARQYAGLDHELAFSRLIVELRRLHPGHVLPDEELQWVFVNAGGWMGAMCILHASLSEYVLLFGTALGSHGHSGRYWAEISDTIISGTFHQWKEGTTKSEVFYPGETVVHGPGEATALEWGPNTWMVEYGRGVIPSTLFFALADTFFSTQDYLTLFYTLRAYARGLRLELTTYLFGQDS
UniProt P63074: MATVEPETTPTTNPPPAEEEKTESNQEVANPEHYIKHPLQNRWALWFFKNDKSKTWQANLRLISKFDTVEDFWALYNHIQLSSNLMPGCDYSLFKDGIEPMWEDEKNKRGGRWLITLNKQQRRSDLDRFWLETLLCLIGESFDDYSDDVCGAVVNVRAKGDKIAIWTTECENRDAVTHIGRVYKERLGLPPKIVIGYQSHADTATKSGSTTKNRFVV
UniProt Q9CQS8: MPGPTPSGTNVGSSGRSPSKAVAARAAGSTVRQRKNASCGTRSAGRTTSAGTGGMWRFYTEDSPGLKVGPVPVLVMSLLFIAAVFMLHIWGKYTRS
UniProt Q62622: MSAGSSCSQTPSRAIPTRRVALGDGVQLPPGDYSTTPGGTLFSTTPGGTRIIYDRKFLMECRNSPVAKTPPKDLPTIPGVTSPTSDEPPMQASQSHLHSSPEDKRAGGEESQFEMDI
UniProt P01100: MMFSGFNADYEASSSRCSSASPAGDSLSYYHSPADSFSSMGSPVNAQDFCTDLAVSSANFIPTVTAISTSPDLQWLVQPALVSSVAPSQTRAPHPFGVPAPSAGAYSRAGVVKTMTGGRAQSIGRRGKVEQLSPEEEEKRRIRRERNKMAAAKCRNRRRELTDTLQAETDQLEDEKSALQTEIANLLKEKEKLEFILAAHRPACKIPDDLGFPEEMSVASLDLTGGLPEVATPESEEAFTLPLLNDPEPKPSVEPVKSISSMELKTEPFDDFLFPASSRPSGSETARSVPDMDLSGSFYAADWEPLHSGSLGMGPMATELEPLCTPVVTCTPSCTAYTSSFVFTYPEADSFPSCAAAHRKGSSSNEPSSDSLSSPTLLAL

binding [1]: binds
Substance: endogenous Sec61β (from UniProt Q9CQS8 1-96)

binding [2]: binds
Substance: 4E-BP1, endogenous in rat DRG (from UniProt Q62622 1-117)

binding [3]: binds
Substance: cFOS-Myc/DDK (from UniProt P01100 1-380)

binding [4]: binds
Substance: HA-Sec61β (from UniProt Q9CQS8 1-96)

Reference: PMC8128747
